Reference: patent US20250352530A1, “METHOD AND COMPOSITION FOR TREATING LUNG DISEASES” (MannKind Corporation, priority 2024, published 2025)
Some of these results come from one statement about several compounds together.

Assay: Stability of nintedanib content in powder on storage
Assay type: physicochemical
Settings: 40° C., 75% RH, 12 weeks

COC(=O)c1ccc2c(c1)NC(=O)/C2=C(\Nc1ccc(N(C)C(=O)CN2CCN(C)CC2)cc1)c1ccccc1 [nintedanib free base, methyl 2-hydroxy-3-[N-[4-[methyl-[2-(4-methylpiperazin-1-yl)acetyl]amino]phenyl]-C-phenylcarbonimidoyl]-1H-indole-6-carboxylate]
loss of the original content of nintedanib: less than 5%
